Consider 86 sequences from the supplement of paper PMC3334620.

The full ranking holds about 33,000 sequences; the median of “E-score (-0.5 to 0.5)” is about -0.016, and the highest 2% start at about 0.3. The list shows a part of the results.

This experiment has as its target T1, Yer184c (UniProt P39961).
T1 sequence: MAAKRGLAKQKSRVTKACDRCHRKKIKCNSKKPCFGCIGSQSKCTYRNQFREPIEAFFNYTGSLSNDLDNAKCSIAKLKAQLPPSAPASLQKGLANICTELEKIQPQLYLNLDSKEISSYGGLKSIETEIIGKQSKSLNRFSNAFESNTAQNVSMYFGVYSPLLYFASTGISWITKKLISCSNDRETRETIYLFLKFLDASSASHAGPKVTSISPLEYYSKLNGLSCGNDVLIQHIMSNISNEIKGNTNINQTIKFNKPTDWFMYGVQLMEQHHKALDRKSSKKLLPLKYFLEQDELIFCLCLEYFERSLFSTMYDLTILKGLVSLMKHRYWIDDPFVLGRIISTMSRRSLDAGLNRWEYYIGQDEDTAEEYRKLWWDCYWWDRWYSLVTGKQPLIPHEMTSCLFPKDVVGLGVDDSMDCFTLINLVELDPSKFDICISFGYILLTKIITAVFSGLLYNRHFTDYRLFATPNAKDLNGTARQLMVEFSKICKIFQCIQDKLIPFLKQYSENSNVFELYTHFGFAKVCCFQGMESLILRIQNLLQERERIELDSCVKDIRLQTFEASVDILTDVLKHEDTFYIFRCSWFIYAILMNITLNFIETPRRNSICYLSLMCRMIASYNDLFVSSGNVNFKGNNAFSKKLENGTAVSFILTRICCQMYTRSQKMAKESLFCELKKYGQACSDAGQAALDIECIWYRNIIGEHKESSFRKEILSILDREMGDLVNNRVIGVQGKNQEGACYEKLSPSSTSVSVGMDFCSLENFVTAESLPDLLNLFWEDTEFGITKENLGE
As to the kind of experiment: PBM E-score (8-mer binding enrichment) (E-score (-0.5 to 0.5)); higher = stronger / more preferred TF binding. As to conditions: protein concentration: 100 nM; construct: GST-full length. A digest of the protocol: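 Yeast transcription factors, full-length or as DNA-binding domains, were expressed with a GST tag using PURExpress in vitro transcription/translation. At about 100-200 nM they were applied to universal all-10-mer Agilent arrays, double-stranded by primer extension on fresh or once-stripped slides. Fluorescent anti-GST detected bound protein, and masliner normalised the scans. E-scores for ungapped eight-base words, pooled with reverse complements, came from the Universal PBM Analysis Suite.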
In the case of GCCGAGTA, the “PBM E-score” value is 0.262. Then AATTGAGG, with -0.0637; and GCCCAAGA, with -0.218; and AAGATCCT, with 0.0626. On to ATATATCA, for which the “PBM E-score” value was 0.115. As to GTGCATAA, the “PBM E-score” value was 0.0831.

With GTGGTCCA, the “PBM E-score” value was -0.0671. ACCAAACT: the “PBM E-score” value was -0.1.

Turning to ACCATGAA, the “PBM E-score” value is 0.174. Then AGTTGGCC, with -0.179; and GCTTCCAC, with -0.0352. In the case of CGGGCGCC it was 0.05; in that of ATGCCAGA, 0.0873. Then AGAGGGGC, with -0.158; and AATCACCC, with 0.01; and GCTGTAAC, with 0.0846.

Take AAAGATAC: the “PBM E-score” value worked out at 0.0833. Then ACCGCCTC, with -0.132; and AAGGCAAC, with 0.0867. Then ACGGGACA, with 0.0644; and CAGATTTA, with 0.133; and ACAGATCT, with 0.00119. Then AAGGTCGC, with -0.0692. Turning to CTATTCAG, the “PBM E-score” value was -0.0636. Then TACCGCTA, with -0.167. Then TAGCCGAA, with 0.276. CGTGTGGA: the “PBM E-score” value is -0.122. Then CTTAGTCC, with 0.0476; and TCACTAGA, with 0.0233.

As for AGAACCGC, the “PBM E-score” value is 0.183. In the case of AGACACTC it was 0.0334; in that of CAGTAATG, -0.0116. Then ATACTCTA, with 0.0257. Then GTCGCCGA, with 0.219; and AACCCGTC, with -0.15; and GCAGTAAC, with -0.167. As for ACTTCAAC, the “PBM E-score” value worked out at 0.144. In the case of AAAAACTA it was 0.221; in that of GAGACACA, 0.0619; in that of ATTAGATG, 0.208.

With CATTCAAC, the “PBM E-score” value was 0.0692. In the case of CATCCGGC it was 0.358; in that of TAAGGGAA, -0.174; in that of TTAAAGAA, 0.134. Then CGTTATAC, with -0.11; and ACACCCAC, with -0.108. In the case of CCTCGGCC it was 0.257.

For CAAATAAG, the “PBM E-score” value is 0.069. Then AGTAACTA, with 0.173; and AAGTCGTA, with -0.236. Then ATATATCG, with 0.312; and GGGGGCAA, with -0.376. Then ACTCCCTG, with -0.281. In the case of CAGACCTC, the “PBM E-score” value was -0.149. Then CAGGGCAA, with -0.128. Then AGTCAACA, with 0.0316; and AGAGCATC, with -0.0427; and GGCGGCGA, with 0.0554. In the case of TACGGCGA it was 0.189; in that of GTACAATA, 0.188. CCGAGTAC: the “PBM E-score” value amounted to 0.161. Then CCTATAAC, with -0.291; and CAAAATAG, with -0.122.

For the sequence AGCATGGA, the “PBM E-score” value was -0.123. Then AGCGACAG, with -0.0265; and AACGTAAC, with 0.0313.

Consider CATCAAGA, for which the “PBM E-score” value amounted to 0.0421.

In the case of AAAAGTCT, the “PBM E-score” value is -0.0201. Then TGAATACA, with 0.197; and AGCTCCTG, with -0.209.

As for TGAGTTAA, the “PBM E-score” value is 0.117. In the case of AATAAAGG it was -0.187. Regarding CCCAAGAG, the “PBM E-score” value was -0.17. In the case of AGGGCACC it was -0.34. Then AGAAGCCG, with 0.19; and GCTAGTCA, with -0.279; and AGCGACTC, with -0.194. Regarding GTGGTGTA, the “PBM E-score” value was -0.0193. Then AATAAATA, with 0.414. In the case of GGTGAAAA it was 0.232; in that of CGCAGAGA, -0.249; in that of CACCCGAG, -0.0578. Then AGCTATTC, with -0.0947; and ACTTGGCT, with -0.154. In the case of GGCGCTCA, the “PBM E-score” value was -0.053. As for CTAACAGA, the “PBM E-score” value was 0.179.
